Reference: patent US7030081B2 (S.I.S.S.A.- Scuola Internazionale Superiore di Studi …, priority 2000, dated 2006)

By UniProt entry, the sequences of proteins in these tests, tags left out. Where a name states a change or a piece, a line headed by the entry shows the natural chain unless it says otherwise.
UniProt P06881: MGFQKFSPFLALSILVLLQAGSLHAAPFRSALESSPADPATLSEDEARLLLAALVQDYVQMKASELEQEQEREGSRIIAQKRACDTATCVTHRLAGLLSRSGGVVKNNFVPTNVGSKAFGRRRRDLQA

Test system: nAChRs of rat chromaffin cells
Experiment: Patch-clamp recording of nicotine-induced currents in cultured rat chromaffin cells
Format: cell-based
Protocol: Cultures of rat chromaffin cells were prepared according to the Brandt method (Brandt et al., 1976, Giniatullin et al., 1999, Khirough et al., 1997, 1998). 25–35 day old rats were anaesthetized by increasing CO2 levels and then their adrenal glands were removed. The medullary part was separated from the cortical portion of the gland in buffer solution (pH 7.2) containing (mM): NaCl 137, KCl 3, Na2HPO4 0.7, HEPES 25, glucose 10 and 350 U ml^−1 of penicillin and streptomycin. […]
Dishes containing cultured cells (used from 0 to 3 days after their preparation) were placed on an inverted Nikon DIAPHOT™ microscope and continuously superfused (5–10 ml/min) with control saline containing (mM): NaCl 135, KCl 5, MgCl2 1, CaCl2 2, glucose 15, HEPES 10 (pH 7.4 with addition of NaCH; 285 mOsm osmolarity). […] After obtaining whole-cell configuration (Hamill et al. 1981), each cell was stabilized for […] period, after which membrane ionic currents, mediated by nAChR activation, were recorded, filtered at 1 kHz, and stored in a PC for subsequent analysis with the pCLAMP 6.04 program (Axon Instruments Inc., Foster City, Calif.).
nAChR agonists were administered to single cells by a pressure system from a micropipette containing a relatively concentrated solution and placed at […] distance from the recorded cell. […]

CGRP 1-3: CGRP N-terminal fragment 1-3, inactive (ACD; Calcitonin gene-related peptide 1; UniProt P06881 83-85, looked up, fragment)
enhancement of nicotine induced currents (1 μM peptide, nicotine 0.1 mM, 20 ms pulse): 0±1%
action of fragment on nicotinic currents (in words) (FIG. 5B): inactive
